According to PubChem BioAssay AID2685 (National Center for Advancing Translational Sciences (NCATS), 2010):
Out of some 320,000 compounds screened, about 2,100 (0.66%) were called active. The shares of active, inactive and inconclusive entries below differ from those in the screen. Calls come from the whole dose curve; as a rule, active = well fitted inhibition curve with a large enough effect in the signal ratio, with a control signal flat (not every such curve was filed as active); inconclusive = small, poorly fitted or top-dose-only effect, or effect the other way, or a change in a side signal; inactive = flat fitted curve, though single readings scatter; the % refers to the signal ratio. A potency beside an inconclusive call is a rough fit, not a confirmed value.

Experiment: qHTS Assay for Lipid Storage Modulators in Drosophila S3 Cells
Conditions: BODIPY lipid droplet fluorescence, 18-24 h, cells fed with added oleic acid; lipid storage change, negative = inhibition: at 46.1 µM (top of the series) unless noted
Outline: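 Drosophila S3 cells loaded with oleic acid (400 uM, as added) and compounds at several concentrations; lipid droplets imaged by 488-nm laser-scanning cytometry, 500–530 nm intensity and object ratio to cell channel. Percent activity normalized to 20 uM Triacsin C.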
% is set by controls: 0 for no effect and ±100 for the full control effect; potency is the fitted concentration of half-maximal effect.

| Structure (SMILES) | Potency | lipid storage change, negative = inhibition |
| --- | --- | --- |
| CN(CC(=O)Nc1ccc(F)c(F)c1F)c1cnccn1 | inconclusive: 0.0058 µM [falling, full curve, poor fit] | – |
| Cc1sc(N2C(=O)C3C(C2=O)[C@H]2C=C[C@@H]3C2)c(C#N)c1C (some centres not stated) | – | inconclusive: 6.52% |
| CC(C)CCN(C(=O)c1ccncc1)c1c(N)n(Cc2ccccc2)c(=O)[nH]c1=O | – | inconclusive: 10.9% |
| CCOc1ccc(C(=O)Nc2ccc(N3CCN(C)CC3)cc2)cc1Br | – | inconclusive: 17.9% |
| O=C(N/N=C/c1ccco1)c1csc2c1CCCC2 | – | inconclusive: 16.1% |
| CCOC(=O)c1ccc([N+](=O)[O-])c(CS(=O)(=O)c2ccc(Cl)cc2)c1 | – | inconclusive: 15.1% |
| CC(C)C(=O)Nc1c(C(=O)c2ccc(F)cc2)oc2ccccc12 | – | inconclusive: -13.1% [at 9.22 µM] |
| Nc1nc(Cl)cc(N2CCC(c3cc(-c4ccc(Cl)cc4)n[nH]3)CC2)n1 | inconclusive: 29.1 µM [falling, single point] | – |
| Cc1c(Cl)cccc1NC(=S)NC1CCN(C(C)C)CC1 | inconclusive: 0.103 µM [falling, full curve] | – |
| CCCCCC[n+]1c(-c2ccccc2)csc1Nc1ccccc1 | – | inconclusive: -26.3% |
| COc1ccc(CC(=O)Oc2ccc(Br)cc2F)cc1S(=O)(=O)N1CCOCC1 | – | inconclusive: 9.77% |
| Cc1c(NC(=O)COc2ccccc2Cl)c(=O)n(-c2ccccc2)n1C | inconclusive: 29.1 µM [activator, single point] | – |
| CN(CC(=O)Nc1ccc(F)cc1)C(=O)C1CC(=O)N(Cc2ccccc2)C1 (configuration not stated) | – | inconclusive: 11.8% |
| O=C(O)c1ccc(OCC(O)Cn2cnc3ccccc32)cc1 (configuration not stated) | – | inconclusive: -6.84% |
| O=C(OCC(=O)N1CCCC1)c1cc([N+](=O)[O-])ccc1Cl | inconclusive: 0.082 µM [falling, full curve, poor fit] | – |
| CCCCn1c(=O)n(CC(=O)Nc2ccc(C)c(Cl)c2)c(=O)c2c1ncn2Cc1ccco1 | inconclusive: 29.1 µM [rising, single point] | – |
| COCCNC(=O)C(=O)NNC(=O)CCc1ccccc1 | – | inconclusive: -10.4% |
| O=C(NC1CCCC1)C(=O)N(Cc1cccnc1)C(C(=O)NCC1CCCO1)c1ccco1 (configuration not stated) | – | inconclusive: -21.4% |
| COc1ccc(-c2coc3cc(OC4OC(CO)C(O)C(O)C4O)cc(O)c3c2=O)cc1 (configuration not stated) | – | inconclusive: 27.7% |
| CCOC(=O)C1CCN(C(=O)C(=O)Nc2ccc3nc4n(c(=O)c3c2)CCCCC4)CC1 | – | inconclusive: -4.09% |
| COc1ccccc1NC(=O)C(C)OC(=O)CCNS(=O)(=O)c1ccc(C)c(C)c1 (configuration not stated) | – | inconclusive |
| CC(=O)c1ccc(N2CCN(c3ccccc3O)CC2)c([N+](=O)[O-])c1 | inconclusive: 29.1 µM [falling, single point] | – |
| COc1ccc(NC(=O)c2cccc(NC(=O)c3ccccc3)c2)cc1 | – | inconclusive: -9.17% |
| Cc1ccc(NNC(=O)Nc2ccc(Cl)cc2)nn1 | – | inconclusive: -5.24% |
| O=C(OCC(=O)N(C1CCCCC1)C1CCCCC1)c1cnccn1 | – | inconclusive: -19.9% |
| CCc1noc(C)c1C(=O)NNC(=O)c1ccc(N(CC)CC)cc1 | – | inconclusive: -8.26% |

| Structure (SMILES) | Potency | lipid storage change, negative = inhibition |
| --- | --- | --- |
| CCOC(=O)Cc1csc(NC(=O)c2ccc(Br)cc2)n1 | inconclusive: 13 µM [falling, single point] | – |
| COc1cccc(/C=N/NC(=O)CC(=O)NCCc2ccccc2)c1OC | – | inconclusive: 30.7% |
| CCC(C(=O)NCCN1CCN(C)CC1)n1c(C)c2cnn(-c3ccccc3)c(=O)c2c1C (configuration not stated) | – | inconclusive: 8.02% |
| O=C(c1ccccc1)C1CCN(C(=O)C2CCC(=O)N(Cc3ccccc3F)C2)CC1 (configuration not stated) | inconclusive: 35.5 µM [falling, single point] | – |
| Cc1ccc(CCNC(=O)C2CCN(S(=O)(=O)N3CCOCC3)CC2)cc1 | – | inconclusive: 80.2% |
| CCOC(=O)c1[nH]c(COC(=O)CCCOc2ccccc2)c(C(=O)OCC)c1C | inconclusive: 6.51 µM [activator, partial curve] | – |
| CCOC(=O)C1(Cc2ccc(OC)cc2)CCN(C(=O)C2=CCCC2)CC1 | – | inconclusive: -22% |
| Cc1c(C)n(Cc2ccccc2)c2ccc(C(=O)NCCCN3CCOCC3)cc12 | inconclusive: 18.4 µM [activator, single point] | – |
| CSC1=NNC(c2ccc(C(C)(C)C)cc2)=NN1 | – | inactive: 3.5% |
| CCCCOc1ccc(C(=O)Oc2ccc(C)nc2)cc1 | inconclusive: 16.4 µM [falling, single point] | – |
| CCCCCCCOC(=O)c1ccc(OC(=O)c2cccnc2)cc1 | – | inconclusive: 42.1% |
| O=C(CSc1cccc(C(F)(F)F)c1)NCc1ccccc1 | – | inconclusive: -22.8% |
| O=C(CNC(=S)N(CCCN1CCOCC1)Cc1cccs1)NC1CCCCC1 | – | inconclusive: 23% |
| Cc1cccnc1NC(=O)CCc1nnc2ccc(N3CCC4(CC3)OCCO4)nn12 | inconclusive: 20.6 µM [activator, single point] | – |
| O=C(NC1CCCCC1)C(c1cccnc1)N(C(=O)c1csnn1)c1ccccc1F (configuration not stated) | inconclusive: 0.082 µM [activator, partial curve, poor fit] | – |
| CCOC(=O)N1CCC(Nc2c(NCCCN(CC)c3cccc(C)c3)c(=O)c2=O)CC1 | – | inconclusive: -4.95% |
| COc1ccc(S(=O)(=O)N2CCCCC2)cc1NC(=O)c1ccc(=O)[nH]c1 | – | inconclusive: 19% |
| CCOCC(=O)Nc1ccc(S(=O)(=O)N2CCC(c3nc4ccccc4[nH]3)CC2)cc1 | – | inconclusive |
| Cn1c(=O)c2c(nc(OCc3cccnc3)n2Cc2c(F)cccc2Cl)n(C)c1=O | inconclusive: 2.31 µM [activator, partial curve] | – |
| O=C(CSc1ncnc2c1oc1ccccc12)NCc1ccc(F)cc1 | inconclusive: 1.64 µM [activator, partial curve, poor fit] | – |
| O=C1c2ccccc2C(=O)N1Cc1nc(-c2ccccn2)no1 | inconclusive: 3.66 µM [activator, single point] | – |
| CC1(C)CN(c2ccc(C(=O)c3ccccc3)cc2)C1=O | – | inconclusive: -5.54% |
| Cc1[nH]c(C)c(S(=O)(=O)Nc2cccc(Cl)c2C)c1C(=O)N1CCCC1 | – | inconclusive: 86.3% |
| Oc1oc(-c2ccco2)nc1C=Nc1cccc(Cl)c1 | – | inconclusive: -2.79% |
| CCOC(=O)c1cnn(CC2CCCCC2)c1N | – | inconclusive: 22.5% |
| COc1ccc(N2CCN(C(=O)c3cccc4nc(C)oc34)CC2)cc1 | – | inconclusive: 39.6% |

| Structure (SMILES) | Potency | lipid storage change, negative = inhibition |
| --- | --- | --- |
| Cc1cccc(NC(=O)NNC(=O)CCc2ccccc2)c1 | inconclusive: 0.13 µM [activator, full curve, poor fit] | – |
| Cc1ccc2[nH]c3c(=O)n(CCC4=CCCCC4)cnc3c2c1 | – | inconclusive: 27.8% |
| O=C(CN(C1CCCCC1)S(=O)(=O)c1ccc(Cl)cc1)N1CCOCC1 | – | inconclusive: -34.5% |
| CC1CC(C)CN(S(=O)(=O)N2CCCC(C(=O)NCCCN3CCCCC3C)C2)C1 (configuration not stated) | – | inconclusive: 84.6% |
| COCCn1c(-c2ccc(Cl)cc2Cl)nc2c(c(=O)c3ccccc3n2C)c1=O | inconclusive: 0.411 µM [activator, single point] | – |
| CCN(C(=O)c1cnc(N2CCN(c3ncccn3)CC2)c2ccccc12)c1cccc(Cl)c1 | – | inconclusive: -29.5% |
| CC(C)Oc1ccccc1/C=N/NC(=O)C1CCCC1 | – | inconclusive: 24.7% |
| O=[N+]([O-])c1ccc(C[n+]2cc(-c3ccc(Cl)c(Cl)c3)n3c2CCCCC3)cc1 | – | inconclusive: -2.97% |
| CN(CCCN1CCOCC1)C(=O)c1cc(COc2ccc(F)cc2F)on1 | inconclusive: 3.26 µM [falling, single point] | – |
| Cn1c(N)c(C(=O)COC(=O)C2CCCCC2)c(=O)n(C)c1=O | – | inconclusive: -1.23% |
| O=C(CNC(=O)c1ccco1)NCC(=O)OCc1ccc(F)cc1 | – | inconclusive: -69.2% |
| CCCCN(C(=O)c1ccc2c(c1)S(=O)(=O)N=C1CCCCCN12)c1c(N)n(CCCC)c(=O)[nH]c1=O | – | inconclusive: -1.58% |
| Clc1ccc(-n2ncc3c(NCc4ccccn4)ncnc32)cc1 | – | inconclusive: 3.99% |
| CN1C(=O)C(CC(=O)NCC2CCCCC2)SC1=Nc1ccccc1 (configuration not stated) | – | inconclusive: -19.7% |
| COc1ccc(C2CC(c3ccc(OC)cc3)n3nc(NC(=O)c4cccs4)nc3N2)cc1 (configuration not stated) | inconclusive: 6.51 µM [rising, partial curve, poor fit] | – |
| O=C(NCCCSc1ccccc1)c1cc(Br)ccc1O | – | inconclusive: 48.1% |
| Cc1[nH]c(=O)[nH]c1CN1CCCCC1 | – | inconclusive: -2.59% |
| CCCn1nnnc1-c1ccc(Cl)cc1 | – | inconclusive: 18.5% |
| CCC1CCCCN1C(=O)COC(=O)c1cc(Br)ccc1Cl (configuration not stated) | – | inconclusive: 11.1% |
| Cc1ccccc1OCc1nc2ccccc2c(=O)n1/N=C/c1c[nH]c2ccccc12 | inconclusive: 0.291 µM [activator, full curve, poor fit] | – |
| CC(C)c1onc(C(=O)N2CCCCC2)c1[N+](=O)[O-] | active: 0.82 µM | – |
| O=C(c1n[nH]c(=O)c2ccccc12)N1CCN(c2ccccc2Cl)CC1 | – | inconclusive: 21.5% |
| CC(NC(=O)c1cc(S(=O)(=O)N2CCCC2)ccc1Cl)c1ccccn1 (configuration not stated) | – | inactive: 11.6% |
| O=S(=O)(c1ccc(N2CCCC2)nc1)N1CCCC1 | inconclusive: 1.84 µM [activator, single point] | – |
| Cc1cc(C)cc(NC(=O)CN2C(=O)COc3ccc(S(=O)(=O)N4CCCC4)cc32)c1 | – | inconclusive: -70% |

Four entries from above in another layout.
CCCCN(C(=O)c1ccc2c(c1)S(=O)(=O)N=C1CCCCCN12)c1c(N)n(CCCC)c(=O)[nH]c1=O
  lipid storage change, negative = inhibition: inconclusive: -1.58%
Clc1ccc(-n2ncc3c(NCc4ccccn4)ncnc32)cc1
  lipid storage change, negative = inhibition: inconclusive: 3.99%
CN1C(=O)C(CC(=O)NCC2CCCCC2)SC1=Nc1ccccc1 (configuration not stated)
  lipid storage change, negative = inhibition: inconclusive: -19.7%
COc1ccc(C2CC(c3ccc(OC)cc3)n3nc(NC(=O)c4cccs4)nc3N2)cc1 (configuration not stated)
  Potency: inconclusive: 6.51 µM [rising, partial curve, poor fit]
